Where a name gives a salt, the structure may show the parent alone. Some of the results follow. Hit calls seldom repeat between salt and free forms of one compound.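 Kinases, fused to nanoluciferase, were expressed in K562 cells; luminescence was measured every 4 h from 2 to 18 h as percent of control (DMSO = 100%, positive control = 0%). A time point is decreased if signal falls significantly (2 sigma). Hits were called by the authors by a rule that is not shown; the count of time points alone does not decide it.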
target: STK38 (UniProt Q15208); assay: kinase-Nluc reporter destabilization hit call (1 = scored as downregulated) (binary); higher = compound decreases kinase abundance; conditions: K562; 2-18 h

By UniProt entry, the sequences of proteins in these tests, tags left out. Where a name states a change or a piece, a line headed by the entry shows the natural chain unless it says otherwise.
UniProt Q15208: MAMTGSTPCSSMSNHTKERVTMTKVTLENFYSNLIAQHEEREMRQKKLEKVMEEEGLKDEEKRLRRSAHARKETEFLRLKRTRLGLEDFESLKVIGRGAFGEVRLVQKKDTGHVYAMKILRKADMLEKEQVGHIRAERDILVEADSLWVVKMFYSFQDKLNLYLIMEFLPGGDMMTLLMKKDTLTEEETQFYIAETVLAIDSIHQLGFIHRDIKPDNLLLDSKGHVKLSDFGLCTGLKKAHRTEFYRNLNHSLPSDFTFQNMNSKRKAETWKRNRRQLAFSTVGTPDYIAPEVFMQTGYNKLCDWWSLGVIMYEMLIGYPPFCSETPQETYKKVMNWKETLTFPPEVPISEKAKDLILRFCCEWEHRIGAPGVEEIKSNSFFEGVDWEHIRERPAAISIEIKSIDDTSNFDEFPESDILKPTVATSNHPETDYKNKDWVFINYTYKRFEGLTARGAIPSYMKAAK

kinase-Nluc reporter destabilization hit call, inactive:
N#Cc1ccc(-c2cnc3[nH]cc(NC(=O)c4cccnc4)c3c2)cc1 (10 µM) 0
CC1(N)CCN(c2cccnc2NC(=O)c2nc(-c3ncccc3C(F)(F)F)cnc2N)CC1 [Darovasertib] (10 µM) 0
COc1cc(N2CCC(N3CCN(C)CC3)CC2)ccc1Nc1ncc(Cl)c(-c2c[nH]c3ccccc23)n1 (2.5 µM) 0
CN1CCN(c2ccc(Nc3ncc4cc(C#N)c(=O)n(C5CCCC5)c4n3)cc2)CC1 (10 µM) 0
CO[C@H]1CC[C@H](N2C(=O)CNc3ncc(-c4ccc(C(C)(C)O)nc4)nc32)CC1 (2.5 µM) 0
Cc1c(C(=O)Nc2ccc(Oc3ccnc4[nH]cc(-c5ccccc5)c34)c(F)c2)c(=O)n(-c2ccc(F)cc2)n1C (10 µM) 0
COc1ccc(Nc2ncc(C(F)(F)F)c(NC3CC3)n2)cc1OC (10 µM) 0
C[C@@H]1O[C@@H](Oc2cc(O)c3c(=O)c(O[C@@H]4O[C@@H](C)[C@H](O)[C@@H](O)[C@H]4O)c(-c4ccc(O)cc4)oc3c2)[C@H](O)[C@H](O)[C@H]1O [Kaempferitrin] (10 µM) 0
COC(=O)Nc1ccc(-c2nc(N3CCOCC3)c3cnn(C4CCN(Cc5cccnc5)CC4)c3n2)cc1 (10 µM) 0
CC(C)Oc1ccc(F)c(-c2cnc(N)c(C(=O)Nc3cnccc3N3CCC[C@@H](C(=O)O)C3)n2)c1 (2 µM) 0
O=Nc1c(-c2c(O)[nH]c3cc(Br)ccc23)[nH]c2ccccc12 [GSK 3 Inhibitor IX] (2.5 µM) 0
NCC1CCC(CNc2nc(NCc3ccccc3OC(F)(F)F)ncc2[N+](=O)[O-])CC1 (stereo not given) [PKC-theta inhibitor] (10 µM) 0
N[C@@H]1CCCN(c2c(/C=C3\SC(=O)NC3=O)cccc2-c2ccccc2)C1 (10 µM) 0
CCn1c(-c2nonc2N)nc2c(C#CC(C)(C)O)ncc(OC[C@H]3CCCNC3)c21 (10 µM) 0
CNC(=O)c1cc2c(Oc3ccc(NC(=O)C4(C(=O)Nc5ccc(F)cc5)CC4)cc3)ccnc2cc1OC (2.5 µM) 0
C=CC(=O)N1CC[C@@H](Oc2nc(Nc3ccc(N4CCC(N5CCN(C)CC5)CC4)cc3)c(C(N)=O)nc2CC)C1 [Naquotinib (mesylate)] (2.5 µM) 0
C=CC(=O)Nc1cc(Nc2nccc(-c3cn(C)c4ccccc34)n2)c(OC)cc1OCCN(C)C [Rezivertinib] (2.5 µM) 0
Oc1c(F)cc(-c2cnccc2-c2ccc(N3CCOCC3)cc2)cc1F (10 µM) 0
Brc1ccc(CSc2nc3ccccc3o2)cc1 [BMP signaling agonist sb4] (10 µM) 0
O=C1OC(/C=C/c2ccccc2)=NC/1=C\c1cccnc1 (10 µM) 0
O=C(NCCN1CCOCC1)Nc1nc2ccc(Sc3nnc4ccc(-c5ccc(F)cc5)nn34)cc2s1 (10 µM) 0
Cn1c(CNc2cccc(C(=O)NCc3ccccc3C(F)(F)F)c2)nnc1-c1ccncc1 (10 µM) 0
COc1cc2cc(Oc3ccc4ccc(=O)oc4c3)c(=O)oc2cc1O [Daphnoretin] (10 µM) 0
O=C(O)c1cc(N(Cc2ccccc2O)Cc2cc(O)ccc2O)ccc1O [Lavendustin A] (10 µM) 0
Cc1c(Cl)cccc1S(=O)(=O)Nc1nc(NCCc2ccccc2)nc2c1CN(Cc1ccccc1)CC2 (2.5 µM) 0
CO[C@H]1C[C@@H]2CC[C@@H](C)[C@@](O)(O2)C(=O)C(=O)N2CCCC[C@H]2C(=O)O[C@H]([C@H](C)C[C@@H]2CC[C@@H](OC(=O)C(C)(CO)CO)[C@H](OC)C2)CC(=O)[C@H](C)/C=C(\C)[C@@H](O)[C@@H](OC)C(=O)[C@H](C)C[C@H](C)/C=C/C=C/C=C/1C [Temsirolimus] (2.5 µM) 0
O=C1Nc2ccc(CN3C(=O)CSC3=O)cc2/C1=C/c1cc(CN2CCOCC2)c[nH]1 (10 µM) 0

target: SYK (UniProt P43405); assay: as above; conditions: K562; 2-18 h

kinase-Nluc reporter destabilization hit call, inactive:
N#Cc1cnc2c(Cl)cc(NCc3cn(CCN4CCCCCC4)nn3)cc2c1Nc1ccc(F)c(Cl)c1 [Cot inhibitor-1] (10 µM) 0
Cc1cc(Nc2cc(N)ncn2)c(=O)n2c1C(=O)NC21CCCCC1 [Tomivosertib] (10 µM) 0
CC(Cc1ccc(O)c(O)c1)C(C)Cc1ccc(O)c(O)c1 (stereo not given) [Nordihydroguaiaretic acid] (2.5 µM) 0
CNC(=O)c1ccc2c(C(=Nc3cccc(CN(C)C)c3)c3ccccc3)c(O)[nH]c2c1 [MEK inhibitor] (10 µM) 0
COC(=O)[C@H](CCSC)NC(=O)c1ccc(NC[C@@H](N)CS)cc1-c1ccccc1 [FTI-277 (hydrochloride)] (10 µM) 0
C=CC(=O)Nc1ccc(C(=O)Nc2[nH]nc3c2CN(C(=O)N[C@H](CN(C)C)c2ccccc2)C3(C)C)cc1 (10 µM) 0
CCN(CC)CCCC(C)Nc1nc(C)cc(Nc2ccc3nc(C)cc(N)c3c2)n1 (stereo not given) (10 µM) 0
COc1cc(F)ccc1-c1ncnc(Nc2cccc(C[S@](C)(=N)=O)c2)n1 [Atuveciclib] (2.5 µM) 0
O=C(c1cccc(Cl)c1F)N1CCN(Cc2cccc(Nc3nccs3)n2)CC1 (2.5 µM) 0
N#Cc1ccc(-c2cnc3ccc(-c4ccc(C(=O)N5CCOCC5)cc4)cn23)cc1 (10 µM) 0
Cc1ccc(C(=O)NC2CC2)cc1-n1ncc(C(=O)c2cccc(C#N)c2)c1N [Acumapimod] (10 µM) 0
N#Cc1ccc(-c2cnc3[nH]cc(NC(=O)c4cccnc4)c3c2)cc1 (10 µM) 0
CC1(N)CCN(c2cccnc2NC(=O)c2nc(-c3ncccc3C(F)(F)F)cnc2N)CC1 [Darovasertib] (10 µM) 0
COc1cc(N2CCC(N3CCN(C)CC3)CC2)ccc1Nc1ncc(Cl)c(-c2c[nH]c3ccccc23)n1 (2.5 µM) 0
CN1CCN(c2ccc(Nc3ncc4cc(C#N)c(=O)n(C5CCCC5)c4n3)cc2)CC1 (10 µM) 0
CO[C@H]1CC[C@H](N2C(=O)CNc3ncc(-c4ccc(C(C)(C)O)nc4)nc32)CC1 (2.5 µM) 0
Cc1c(C(=O)Nc2ccc(Oc3ccnc4[nH]cc(-c5ccccc5)c34)c(F)c2)c(=O)n(-c2ccc(F)cc2)n1C (10 µM) 0
COc1ccc(Nc2ncc(C(F)(F)F)c(NC3CC3)n2)cc1OC (10 µM) 0
C[C@@H]1O[C@@H](Oc2cc(O)c3c(=O)c(O[C@@H]4O[C@@H](C)[C@H](O)[C@@H](O)[C@H]4O)c(-c4ccc(O)cc4)oc3c2)[C@H](O)[C@H](O)[C@H]1O [Kaempferitrin] (10 µM) 0
COC(=O)Nc1ccc(-c2nc(N3CCOCC3)c3cnn(C4CCN(Cc5cccnc5)CC4)c3n2)cc1 (10 µM) 0
CC(C)Oc1ccc(F)c(-c2cnc(N)c(C(=O)Nc3cnccc3N3CCC[C@@H](C(=O)O)C3)n2)c1 (2 µM) 0
O=Nc1c(-c2c(O)[nH]c3cc(Br)ccc23)[nH]c2ccccc12 [GSK 3 Inhibitor IX] (2.5 µM) 0
NCC1CCC(CNc2nc(NCc3ccccc3OC(F)(F)F)ncc2[N+](=O)[O-])CC1 (stereo not given) [PKC-theta inhibitor] (10 µM) 0
N[C@@H]1CCCN(c2c(/C=C3\SC(=O)NC3=O)cccc2-c2ccccc2)C1 (10 µM) 0
CCn1c(-c2nonc2N)nc2c(C#CC(C)(C)O)ncc(OC[C@H]3CCCNC3)c21 (10 µM) 0
CNC(=O)c1cc2c(Oc3ccc(NC(=O)C4(C(=O)Nc5ccc(F)cc5)CC4)cc3)ccnc2cc1OC (2.5 µM) 0
C=CC(=O)N1CC[C@@H](Oc2nc(Nc3ccc(N4CCC(N5CCN(C)CC5)CC4)cc3)c(C(N)=O)nc2CC)C1 [Naquotinib (mesylate)] (2.5 µM) 0
C=CC(=O)Nc1cc(Nc2nccc(-c3cn(C)c4ccccc34)n2)c(OC)cc1OCCN(C)C [Rezivertinib] (2.5 µM) 0
Oc1c(F)cc(-c2cnccc2-c2ccc(N3CCOCC3)cc2)cc1F (10 µM) 0
Brc1ccc(CSc2nc3ccccc3o2)cc1 [BMP signaling agonist sb4] (10 µM) 0
O=C1OC(/C=C/c2ccccc2)=NC/1=C\c1cccnc1 (10 µM) 0
O=C(NCCN1CCOCC1)Nc1nc2ccc(Sc3nnc4ccc(-c5ccc(F)cc5)nn34)cc2s1 (10 µM) 0
Cn1c(CNc2cccc(C(=O)NCc3ccccc3C(F)(F)F)c2)nnc1-c1ccncc1 (10 µM) 0
COc1cc2cc(Oc3ccc4ccc(=O)oc4c3)c(=O)oc2cc1O [Daphnoretin] (10 µM) 0
O=C(O)c1cc(N(Cc2ccccc2O)Cc2cc(O)ccc2O)ccc1O [Lavendustin A] (10 µM) 0
Cc1c(Cl)cccc1S(=O)(=O)Nc1nc(NCCc2ccccc2)nc2c1CN(Cc1ccccc1)CC2 (2.5 µM) 0
CO[C@H]1C[C@@H]2CC[C@@H](C)[C@@](O)(O2)C(=O)C(=O)N2CCCC[C@H]2C(=O)O[C@H]([C@H](C)C[C@@H]2CC[C@@H](OC(=O)C(C)(CO)CO)[C@H](OC)C2)CC(=O)[C@H](C)/C=C(\C)[C@@H](O)[C@@H](OC)C(=O)[C@H](C)C[C@H](C)/C=C/C=C/C=C/1C [Temsirolimus] (2.5 µM) 0
O=C1Nc2ccc(CN3C(=O)CSC3=O)cc2/C1=C/c1cc(CN2CCOCC2)c[nH]1 (10 µM) 0
